Measured values published in patent publication US9012611B2, “Use of 3,8,12,14, 17,20-oxo-substituted pregnene glycosides in the preparation of healthcare products, food additives and pharmaceuticals for the inhibition of appetite” (Institute of Materia Medica, Chinese Academy of Sciences, priority 2010, dated 2015).

Test system: female Wistar rat
Test: Animal test in vivo: average water consumption
Conditions: for Average water consumptions: positive control 15 mg/kg; for water consumption doses compared with the blank control group (in words): during the administration of the drugs, pure glycosides 50 mg/kg
[1] = 1st day (administration day), Table 5, wilfosides 50 mg/kg
[2] = 2nd day (administration day), Table 5, wilfosides 50 mg/kg
[3] = 3rd day (administration day), Table 5, wilfosides 50 mg/kg
[4] = 4th day (after administration on days 1-3), Table 5, wilfosides 50 mg/kg
[5] = 5th day (after administration on days 1-3), Table 5, wilfosides 50 mg/kg
[6] = 6th day (after administration on days 1-3), Table 5, wilfosides 50 mg/kg
[7] = 7th day (after administration on days 1-3), Table 5, wilfosides 50 mg/kg
[8] = −1st day (before administration), Table 5, wilfosides 50 mg/kg
[9] = −2nd day (before administration), Table 5, wilfosides 50 mg/kg
[10] = −3rd day (before administration), Table 5, wilfosides 50 mg/kg
[11] = −4th day (before administration), Table 5, wilfosides 50 mg/kg
[12] = −5th day (before administration), Table 5, wilfosides 50 mg/kg
[13] = −6th day (before administration), Table 5, wilfosides 50 mg/kg
[14] = −7th day (before administration), Table 5, wilfosides 50 mg/kg
[15] = 1st day (administration day), Table 2, crude extract 300 mg/kg, others 50 mg/kg
[16] = 2nd day (administration day), Table 2, crude extract 300 mg/kg, others 50 mg/kg
[17] = 3rd day (administration day), Table 2, crude extract 300 mg/kg, others 50 mg/kg
[18] = 4th day (after administration on days 1-3), Table 2, crude extract 300 mg/kg, others 50 mg/kg
[19] = 5th day (after administration on days 1-3), Table 2, crude extract 300 mg/kg, others 50 mg/kg
[20] = 6th day (after administration on days 1-3), Table 2, crude extract 300 mg/kg, others 50 mg/kg
[21] = 7th day (after administration on days 1-3), Table 2, crude extract 300 mg/kg, others 50 mg/kg
[22] = −1st day (before administration), Table 2, crude extract 300 mg/kg, others 50 mg/kg
[23] = −2nd day (before administration), Table 2, crude extract 300 mg/kg, others 50 mg/kg
[24] = −3rd day (before administration), Table 2, crude extract 300 mg/kg, others 50 mg/kg
[25] = −4th day (before administration), Table 2, crude extract 300 mg/kg, others 50 mg/kg
[26] = −5th day (before administration), Table 2, crude extract 300 mg/kg, others 50 mg/kg
[27] = −6th day (before administration), Table 2, crude extract 300 mg/kg, others 50 mg/kg
[28] = −7th day (before administration), Table 2, crude extract 300 mg/kg, others 50 mg/kg

Structure (SMILES) | Average water consumptions [1] | Average water consumptions [2] | Average water consumptions [3] | Average water consumptions [4] | Average water consumptions [5] | Average water consumptions [6] | Average water consumptions [7] | water consumption doses compared with the blank control group (in words) (crude extract 300 mg/kg) | Average water consumptions [8] | Average water consumptions [9] | Average water consumptions [10] | Average water consumptions [11] | Average water consumptions [12] | Average water consumptions [13] | Average water consumptions [14] | Average water consumptions [15] | Average water consumptions [16] | Average water consumptions [17] | Average water consumptions [18] | Average water consumptions [19] | other results
CO[C@H]1C[C@H](O[C@H]2[C@@H](OC)C[C@H](O[C@H]3CC[C@@]4(C)C(=CC[C@]5(O)[C@@H]4C[C@@H](OC(=O)/C=C(\C)C(C)C)[C@@]4(C)[C@]5(O)CC[C@@]4(O)C(C)=O)C3)O[C@@H]2C)O[C@@H](C)[C@H]1O[C@H]1C[C@H](OC)[C@H](O[C@H]2C[C@@H](OC)[C@@H](O)[C@H](C)O2)[C@@H](C)O1 [Wilfoside C1N, wilfoside C1N] | 19 mL | 20.4 mL | 13.2 mL | 22 mL | 22 mL | 21.6 mL | 18.8 mL | no much differences | 21.8 mL | 19.6 mL | 19 mL | 20 mL | 18 mL | 16.2 mL | 16.2 mL |  |  |  |  |  | 
CO[C@H]1C[C@H](O[C@H]2[C@@H](OC)C[C@H](O[C@H]3CC[C@@]4(C)C(=CC[C@]5(O)[C@@H]4C[C@@H](OC(=O)/C=C(\C)C(C)C)[C@@]4(C)[C@]5(O)CC[C@@]4(O)C(C)=O)C3)O[C@@H]2C)O[C@@H](C)[C@H]1O[C@H]1C[C@H](OC)[C@H](O[C@H]2C[C@@H](OC)[C@@H](O[C@@H]3O[C@H](CO)[C@@H](O)[C@H](O)[C@H]3O)[C@H](C)O2)[C@@H](C)O1 [Wilfoside C1G, wilfoside C1G] |  |  |  |  |  |  |  | no great differences |  |  |  |  |  |  |  | 23 mL | 21.4 mL | 20 mL | 21 mL | 23 mL | Average water consumptions [20]: 20.6 mL; Average water consumptions [21]: 24 mL; Average water consumptions [22]: 24 mL; Average water consumptions [23]: 19 mL; Average water consumptions [24]: 22 mL; Average water consumptions [25]: 22 mL; Average water consumptions [26]: 18.6 mL; Average water consumptions [27]: 21 mL; Average water consumptions [28]: 18 mL
CO[C@H]1C[C@H](O[C@H]2[C@@H](OC)C[C@H](O[C@H]3CC[C@@]4(C)C(=CC[C@]5(O)[C@@H]4C[C@@H](OC(=O)/C=C/c4ccccc4)[C@@]4(C)[C@]5(O)CC[C@@]4(O)C(C)=O)C3)O[C@@H]2C)O[C@@H](C)[C@H]1O[C@H]1C[C@H](OC)[C@H](O[C@H]2C[C@@H](OC)[C@@H](O)[C@H](C)O2)[C@@H](C)O1 [Wilfoside K1N, wilfoside K1N] | 12.6 mL | 19.8 mL | 14.4 mL | 18 mL | 20.4 mL | 19.2 mL | 21.6 mL | greatly different from those in the blank group | 21.8 mL | 16.2 mL | 17.8 mL | 18.8 mL | 18.2 mL | 16.6 mL | 12.7 mL |  |  |  |  |  | 
CO[C@H]1C[C@H](O[C@H]2[C@@H](OC)C[C@H](O[C@H]3CC[C@@]4(C)C(=CC[C@]5(O)[C@@H]4C[C@@H](OC(=O)/C=C/c4ccccc4)[C@@]4(C)[C@]5(O)CC[C@@]4(O)C(C)=O)C3)O[C@@H]2C)O[C@@H](C)[C@H]1O[C@H]1C[C@H](OC)[C@H](O[C@H]2C[C@@H](OC)[C@@H](O[C@@H]3O[C@H](CO)[C@@H](O)[C@H](O)[C@H]3O)[C@H](C)O2)[C@@H](C)O1 [Cynauricuoside A, cynauricuoside A] |  |  |  |  |  |  |  | no much differences |  |  |  |  |  |  |  | 13 mL | 16 mL | 18.6 mL | 19 mL | 20 mL | Average water consumptions [20]: 22.4 mL; Average water consumptions [21]: 23 mL; Average water consumptions [22]: 21 mL; Average water consumptions [23]: 17.6 mL; Average water consumptions [24]: 22 mL; Average water consumptions [25]: 15.6 mL; Average water consumptions [26]: 19 mL; Average water consumptions [27]: 22 mL; Average water consumptions [28]: 19 mL
CC(C)CC(N(C)C)C1(c2ccc(Cl)cc2)CCC1 (stereo not shown) [Positive control, sibutramine hydrochloride, reference compound] | 14 mL | 19.8 mL | 16.4 mL | 19.8 mL | 17.2 mL | 18.6 mL | 13.8 mL |  | 23.6 mL | 18.2 mL | 19.8 mL | 18.8 mL | 18.8 mL | 15.6 mL | 13 mL | 13.8 mL | 17 mL | 22 mL | 23.8 mL | 21 mL | Average water consumptions [20]: 23 mL; Average water consumptions [21]: 25 mL; Average water consumptions [22]: 23 mL; Average water consumptions [23]: 18.2 mL; Average water consumptions [24]: 22 mL; Average water consumptions [25]: 24 mL; Average water consumptions [26]: 22 mL; Average water consumptions [27]: 21.8 mL; Average water consumptions [28]: 33 mL

Where a name gives a salt, the structure may show the parent alone.
